# Data taken from publication PMC4632311.
# Protein sequences, listed by entry. Tags and fused reporters are not part of them. Lines headed by an entry give the natural chain unless they say otherwise; changes in a name come on top.
# UniProt Q4QFZ0: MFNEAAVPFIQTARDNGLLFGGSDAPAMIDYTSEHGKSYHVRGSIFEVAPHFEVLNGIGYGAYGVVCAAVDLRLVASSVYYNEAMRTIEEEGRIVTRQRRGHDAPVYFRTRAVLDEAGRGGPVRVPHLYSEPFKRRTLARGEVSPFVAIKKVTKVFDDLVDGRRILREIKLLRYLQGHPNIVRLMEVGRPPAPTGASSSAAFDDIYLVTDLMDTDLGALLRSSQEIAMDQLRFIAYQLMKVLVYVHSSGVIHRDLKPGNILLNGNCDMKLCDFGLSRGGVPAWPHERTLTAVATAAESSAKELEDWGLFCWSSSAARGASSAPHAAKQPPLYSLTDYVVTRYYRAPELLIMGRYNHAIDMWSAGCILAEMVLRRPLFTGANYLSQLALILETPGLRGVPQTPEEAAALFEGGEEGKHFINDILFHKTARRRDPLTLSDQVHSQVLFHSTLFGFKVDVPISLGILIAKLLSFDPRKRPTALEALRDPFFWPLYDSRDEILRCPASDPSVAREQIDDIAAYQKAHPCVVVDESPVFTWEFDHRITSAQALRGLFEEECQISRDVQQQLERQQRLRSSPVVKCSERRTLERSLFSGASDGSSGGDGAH
# UniProt E9AEY0: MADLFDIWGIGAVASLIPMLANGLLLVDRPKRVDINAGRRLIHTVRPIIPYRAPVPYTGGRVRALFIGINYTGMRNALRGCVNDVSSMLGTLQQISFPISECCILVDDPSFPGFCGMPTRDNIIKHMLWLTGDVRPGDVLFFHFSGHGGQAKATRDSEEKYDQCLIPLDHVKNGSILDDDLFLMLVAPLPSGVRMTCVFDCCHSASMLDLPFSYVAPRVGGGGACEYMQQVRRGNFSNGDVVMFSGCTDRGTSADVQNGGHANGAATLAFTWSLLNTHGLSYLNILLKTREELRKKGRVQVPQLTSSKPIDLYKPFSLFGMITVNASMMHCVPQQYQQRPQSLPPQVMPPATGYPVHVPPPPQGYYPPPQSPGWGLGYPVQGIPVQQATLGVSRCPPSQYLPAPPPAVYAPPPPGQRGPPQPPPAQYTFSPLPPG
# Results are given in words; binding and its absence hold for the method and conditions named. In cells and extracts the contact can be indirect. For some assays here: A result given as binding can be weak or reduced; the word gives no strength.
# Assays:
# [1] = target: GFP-tagged L. major MPK7 (GFP-MPK7) (L. major) (UniProt Q4QFZ0); assay: condition: only cells in autophagic conditions (day 5 stationary phase); pull-down; as a4, but parasites in autophagic conditions (legend: day 5 stationary phase)
# [2] = target: GFP-tagged L. major MPK7 (GFP-MPK7) (L. major) (UniProt Q4QFZ0); assay: pull-down; GFP-MPK7 isolated from crude L. major lysates with magnetic beads carrying anti-GFP antibody (uMACS GFP Isolation Kit), 1 h at 4 C; blot with anti-MCA; logarithmic cultures untreated or treated 4 h with 40 uM miltefosine
substance,measurement,setting,value
LmjMCA (endogenous) (from UniProt E9AEY0) (enzyme),binding,[1],no binding
same,binding,[2],binds
